Measured values: PubChem BioAssay AID256 (DTP/NCI, 2004)
The list shows only some results of the screen, not a fair sample: it covers a few groups of compounds. Not every dose and run of a compound is shown. T/C: endpoint of the treated group in % of that of the vehicle group. Some doses have a count of surviving animals in place of a T/C: the source files T/C as zero there, which appears to mark a toxic dose or a test without result, not a measured value. Some doses without a T/C left all or most animals alive at the check, yet need not have been tolerated: the source hardly ever lists a survival T/C far under the control, and the zero likely stands for such cases as well. Counts of survivors are from the toxicity check (mostly the fifth day) where no day follows; animals may have died later. Schedule codes are those of the source, taken here to give the interval after Q, in days (D) or hours (H), and the number of doses after X. Additions like (4×) count equal records among those shown. Some schedule codes hold Z or #, which are not explained here. For survival time, the PubChem record calls one and a half times the control and up active, and a quarter to a half above the control has no call in these data; cut-offs in other NCI protocols can differ. Some T/C values are followed by the survivors on the day toxicity was checked, most often the fifth; where neither a count nor a note follows, no animal had died by that day.

Tested on: CD2F1 mice, L1210 leukemia ip, survival T/C
Assay: NCI In Vivo Anticancer Drug Screen. Data for tumor model L1210 Leukemia (intraperitoneal) in CD2F1 (CDF1) mice
Details: T/C endpoint: mean survival time, higher T/C = longer survival
Outline: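 Activity against a transplanted murine tumor was judged by comparing the compound group with a vehicle group. The outcome in the treated animals was divided by that in the controls.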

[1] = dose: 15.62 mg/kg/injection, schedule: Q01DX001 (ip), vehicle: DMSO
[2] = dose: 31.3 mg/kg/injection, schedule: Q01DX001 (ip), vehicle: DMSO
[3] = dose: 62.5 mg/kg/injection, schedule: Q01DX001 (ip), vehicle: DMSO
[4] = dose: 125.0 mg/kg/injection, schedule: Q01DX001 (ip), vehicle: DMSO
[5] = dose: 250.0 mg/kg/injection, schedule: Q01DX001 (ip), vehicle: DMSO
[6] = dose: 500.0 mg/kg/injection, schedule: Q01DX001 (ip), vehicle: DMSO

With `CC(O)C(C)COP(=O)(N(CCCl)CCCl)N1CC1` (stereo not drawn) the T/C [1] was 97 % of control, the T/C [2] was 101 % of control and the T/C [3] was 101 % of control. The T/C [4] was 129 % of control, the T/C [5] was 141 % of control and the survivor count [6] was 2 of 6.
In the case of `CC(C=O)COP(=O)(N(CCCl)CCCl)N1CC1` (stereo not drawn), the T/C [1] is reported as 103 % of control, the T/C [2] is reported as 117 % of control and the T/C [3] is reported as 135 % of control. The T/C [4] was 127 % of control [5 of 6 alive], the survivor count [5] was 3 of 6 and the survivor count [6] was 0 of 6.
With `O=P1(N(CCCl)CCCl)Oc2ccccc2O1` the T/C (dose: 62.5 mg/kg/injection, schedule: Q01DX001 (ip), vehicle: other) was 116 % of control, the T/C (dose: 125.0 mg/kg/injection, schedule: Q01DX001 (ip), vehicle: other) was 118 % of control and the survivor count (dose: 250.0 mg/kg/injection, schedule: Q01DX001 (ip), vehicle: other) was 3 of 6. For the same molecule, the survivor count (dose: 500.0 mg/kg/injection, schedule: Q01DX001 (ip), vehicle: other) was 1 of 6.
In the case of `O=[As](O)(O)c1ccc(Cl)cc1`, the survivor count (dose: 25.0 mg/kg/injection, schedule: Q01DX009 (ip), vehicle: saline with Tween-80) is reported as 1 of 6, the survivor count (dose: 50.0 mg/kg/injection, schedule: Q01DX009 (ip), vehicle: saline with Tween-80) is reported as 0 of 6 and the survivor count (dose: 100.0 mg/kg/injection, schedule: Q01DX009 (ip), vehicle: saline with Tween-80) is reported as 0 of 6 (2×). For the same molecule, the survivor count (dose: 200.0 mg/kg/injection, schedule: Q01DX009 (ip), vehicle: saline with Tween-80) was 0 of 6 and the survivor count (dose: 400.0 mg/kg/injection, schedule: Q01DX009 (ip), vehicle: saline with Tween-80) was 0 of 6.
In the case of `CCN(CC)CCOC(=O)C(O)(c1ccccc1)c1cc(C)c(C)cc1C` (stereo not drawn), the T/C (dose: 75.0 mg/kg/injection, schedule: Q01DX001 (ip), vehicle: saline) is reported as 98 % of control and the T/C (dose: 150.0 mg/kg/injection, schedule: Q01DX001 (ip), vehicle: saline) is reported as 98 % of control.
For `CCOC(=O)C(CCSC)NC(=O)OCCNCCCl` (stereo not drawn), the T/C (dose: 25.0 mg/kg/injection, schedule: Q04DX003 (ip), vehicle: saline) was 105 % of control, the T/C (dose: 40.0 mg/kg/injection, schedule: Q01DX Z (ip), vehicle: saline) was 94 % of control and the T/C (dose: 50.0 mg/kg/injection, schedule: Q04DX003 (ip), vehicle: saline) was 125 % of control. For the same molecule, the T/C (dose: 52.0 mg/kg/injection, schedule: Q01DX001 (ip), vehicle: saline) was 106 % of control, the T/C (dose: 78.0 mg/kg/injection, schedule: Q01DX001 (ip), vehicle: saline) was 106 % of control and the T/C (dose: 80.0 mg/kg/injection, schedule: Q01DX Z (ip), vehicle: saline) was 105 % of control. For the same molecule, the T/C (dose: 100.0 mg/kg/injection, schedule: Q04DX003 (ip), vehicle: saline) was 121 % of control, the T/C (dose: 117.0 mg/kg/injection, schedule: Q01DX001 (ip), vehicle: saline) was 104 % of control and the T/C (dose: 160.0 mg/kg/injection, schedule: Q01DX Z (ip), vehicle: saline) was 111 % of control. The T/C (dose: 176.0 mg/kg/injection, schedule: Q01DX001 (ip), vehicle: saline) was 128 % of control, the survivor count (dose: 176.0 mg/kg/injection, schedule: Q04DX003 (ip), vehicle: saline) was 6 of 6 and the T/C (dose: 200.0 mg/kg/injection, schedule: Q04DX003 (ip), vehicle: saline) was 120 % of control. For the same molecule, the T/C (dose: 264.0 mg/kg/injection, schedule: Q01DX001 (ip), vehicle: saline) was 124 % of control, the survivor count (dose: 264.0 mg/kg/injection, schedule: Q04DX003 (ip), vehicle: saline) was 4 of 6 and the T/C (dose: 320.0 mg/kg/injection, schedule: Q01DX Z (ip), vehicle: saline) was 89 % of control [5 of 6 alive]. The T/C (dose: 400.0 mg/kg/injection, schedule: Q01DX001 (ip), vehicle: saline) was 131 % of control, the survivor count (dose: 400.0 mg/kg/injection, schedule: Q04DX003 (ip), vehicle: saline) was 0 of 6 and the T/C (dose: 600.0 mg/kg/injection, schedule: Q01DX001 (ip), vehicle: saline) was 141 % of control [5 of 6 alive]. For the same molecule, the survivor count (dose: 600.0 mg/kg/injection, schedule: Q04DX003 (ip), vehicle: saline) was 0 of 6 and the survivor count (dose: 640.0 mg/kg/injection, schedule: Q01DX Z (ip), vehicle: saline) was 0 of 6.
